# Test results as given in PMC7140021.
# Chains of the proteins cited; added tags and fusions are not shown. Residues count along the entry.
# UniProt P16581, 22-610: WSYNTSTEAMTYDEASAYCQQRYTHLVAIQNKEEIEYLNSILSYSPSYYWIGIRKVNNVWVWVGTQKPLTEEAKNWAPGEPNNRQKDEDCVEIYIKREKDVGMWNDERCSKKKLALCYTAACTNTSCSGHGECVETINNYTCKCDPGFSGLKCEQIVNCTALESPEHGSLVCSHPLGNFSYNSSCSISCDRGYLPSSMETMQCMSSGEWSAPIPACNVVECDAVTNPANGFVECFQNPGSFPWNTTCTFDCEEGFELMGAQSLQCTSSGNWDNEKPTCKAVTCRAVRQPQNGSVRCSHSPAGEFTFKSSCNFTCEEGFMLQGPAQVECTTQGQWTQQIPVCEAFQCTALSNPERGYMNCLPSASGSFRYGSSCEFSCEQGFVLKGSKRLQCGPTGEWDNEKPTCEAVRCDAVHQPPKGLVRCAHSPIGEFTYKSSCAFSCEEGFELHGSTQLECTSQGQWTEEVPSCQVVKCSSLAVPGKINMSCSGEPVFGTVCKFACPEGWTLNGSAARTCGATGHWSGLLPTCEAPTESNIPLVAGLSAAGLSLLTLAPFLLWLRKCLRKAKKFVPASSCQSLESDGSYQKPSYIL
# The exact form of at least one protein or probe is not confirmed. At least one result comes from cells or an extract, where the contact may be indirect.
# Biological target: E-selectin (human, on breast tumor vessels) (human) (UniProt P16581)
# Experiment: fluorescence staining of tissue sections with antibody blocking
# Details: 50 nM Cy3-ESTA, binding abolished by anti-E-selectin mAb, not by normal IgG, monothiophosphate substitution at the adenines marked by asterisks (A*), tissue sections fixed with 4% paraformaldehyde, pH and temperature not stated, protein on the cell surface, label: Cy3, single-stranded DNA
sequence,measurement,value
CGCTCGGATCGATAAGCTTCGATCCCACTCTCCCGTTCACTTCTCCTCACGTCACGGATCCTCTAGAGCACTG [ESTA (anti-E-selectin thioaptamer)],binding result,binds
